Results as given in patent US20190315859A1.
These are yes or no findings as the source states them, for the method shown. Some results given as binding are weak or reduced against the parent protein; the word gives no strength.

Key:
[1] = target: human CD19 expressed on the cell surface (native format) (human) (UniProt P15391); test: flow cytometry with scFv phage on Raji, Raji-CD19 k.o. and Jurkat cells
[2] = target: human CD19 expressed on the cell surface (native format) (human) (UniProt P15391); test: flow cytometry, phage clone on CD19+ Raji and Jeko-1, CD19- Raji-CD19 k.o. and Jurkat; MFI
[3] = target: human CD19 expressed on the cell surface (native format) (human) (UniProt P15391); test: flow cytometry, phage clone then anti-M13 mouse antibody then PE-labeled anti-mouse antibody; CD19+ Raji, CD19- Raji-CD19 k.o. and Jurkat; MFI
[4] = target: human CD19 expressed on the cell surface (native format) (human) (UniProt P15391); test: flow cytometry, phage clone on Raji cells, alone or on cells pre-incubated with the parental clone 6 bi-specific antibody as competitor; anti-M13 mouse antibody, PE-conjugated anti-mouse antibody; MFI
[5] = target: human CD19 expressed on the cell surface (native format) (human) (UniProt P15391); test: competition cell-binding: phage clone on Raji cells pre-incubated with the parental bi-specific antibody clone
[6] = target: human CD19 expressed on the cell surface (native format) (human) (UniProt P15391); test: flow cytometry, phage clone on Raji cells, alone or on cells pre-incubated with the parental clone 5 bi-specific antibody as competitor; anti-M13 mouse antibody, PE-conjugated anti-mouse antibody; MFI

Measured: binding

B1: anti-human CD19 scFv phage clone 6 (scFv)
scFv: QAVLTQPPSVSEAPRQRVTISCSGSSSNVGNNAVNWYQQVPGKAPKLLIYYDDLLSSGVSDRFSGSKSGTSASLAISGLQSEDEADYYCAAWDDSLNGPVFGGGTKLTVLGSRGGGGSGGGGSGGGGSLEMAEVQLVQSGAEVKKPGESLKISCKGSGYSFTSYWIGWVRQMPGKGLEWMGIIYPGDSDTRYSPSFQGQVTISADKSISTAYLQWSSLKASDTAMYYCARWSSTWDSMYMDYWGQGTLVTVSS
binds: [1] | [2] | [3] | [4]

B2: anti-human CD19 scFv phage clone 7 (scFv)
scFv: QPVLTQPPSVSVAPGKTARITCGGNNIGSESVHWYQQKPGQAPMVVIYYDSNRPSGIPERFSGSNSGNTATLTVSRVEAEDEADYYCQVWNSSSDHRGVFGGGTKLTVLGSRGGGGSGGGGSGGGGSLEMAEVQLVQSGAEVKKPGESLRISCKGSGYSFTSYWIGWVRQMPGKGLEWMGIIYPGDSDTRYSPSFQGQVTISADKSISTAYLQWSSLKASDTAMYYCARVTYSMDSYYFDSWGQGTLVTVSS
binds: [1] | [3]

B3: variant anti-human CD19 scFv phage clone 5-3 (scFv)
scFv: LPVLTQPPSVSVAPGKTARITCGGNNIGSKSVHWYQQKPGQAPVLVVYDDSNRPSGIPERFSGSNSGNTATLTISRVEAGDEADYYCQVWDSSSEYVVFGGGTKLTVLGSRGGGGSGGGGSGGGGSLEMAEVQLVQSGAEVKKPGESLKISCKGSGYSFTSYWIGWVRQMPGKGLEWMGIIYPGDSDTRYSPSFQGQVTISADKSISTAYLQWSSLKASDTAMYYCARQVWGWQGGMYPRSNWWYNMDSWGQGTLVTVSS
binds: [2] | [5] | [6]
